In publication PMC11069146:
No constants are given. Whether binding was seen depends on the method and setting. In cells and extracts the contact can be indirect. Some binding calls cover weakened binding; strength is not graded here.

By UniProt entry, the sequences of proteins in these tests, tags left out.
UniProt Q93009: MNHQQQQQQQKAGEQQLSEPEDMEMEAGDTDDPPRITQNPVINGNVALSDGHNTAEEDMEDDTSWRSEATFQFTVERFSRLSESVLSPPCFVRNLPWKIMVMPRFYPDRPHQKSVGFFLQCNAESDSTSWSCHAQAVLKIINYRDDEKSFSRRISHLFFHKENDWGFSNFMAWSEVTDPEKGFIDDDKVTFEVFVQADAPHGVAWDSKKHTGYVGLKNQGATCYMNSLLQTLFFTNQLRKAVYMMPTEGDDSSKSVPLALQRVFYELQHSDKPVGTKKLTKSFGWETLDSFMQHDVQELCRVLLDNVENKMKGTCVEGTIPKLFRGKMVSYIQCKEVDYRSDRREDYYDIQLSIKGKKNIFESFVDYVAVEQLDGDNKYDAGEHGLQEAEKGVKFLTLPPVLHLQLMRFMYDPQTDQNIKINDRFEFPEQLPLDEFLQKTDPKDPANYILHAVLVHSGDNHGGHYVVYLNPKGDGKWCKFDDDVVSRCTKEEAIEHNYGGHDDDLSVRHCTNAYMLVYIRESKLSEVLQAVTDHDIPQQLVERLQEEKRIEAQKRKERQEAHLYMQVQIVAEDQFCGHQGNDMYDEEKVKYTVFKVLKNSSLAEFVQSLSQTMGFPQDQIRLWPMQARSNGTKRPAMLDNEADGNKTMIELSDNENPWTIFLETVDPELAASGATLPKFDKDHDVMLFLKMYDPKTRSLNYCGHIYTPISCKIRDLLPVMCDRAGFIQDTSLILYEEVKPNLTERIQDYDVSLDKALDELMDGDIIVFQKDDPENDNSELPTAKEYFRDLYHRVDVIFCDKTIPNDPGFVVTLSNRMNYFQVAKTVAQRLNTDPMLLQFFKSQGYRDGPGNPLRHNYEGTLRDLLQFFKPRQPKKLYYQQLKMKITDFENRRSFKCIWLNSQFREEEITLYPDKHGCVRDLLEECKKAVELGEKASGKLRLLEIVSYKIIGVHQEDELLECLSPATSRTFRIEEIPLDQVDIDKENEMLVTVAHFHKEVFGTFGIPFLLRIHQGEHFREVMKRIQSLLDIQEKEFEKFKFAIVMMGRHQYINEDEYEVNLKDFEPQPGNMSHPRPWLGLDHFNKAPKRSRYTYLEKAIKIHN
UniProt P19474: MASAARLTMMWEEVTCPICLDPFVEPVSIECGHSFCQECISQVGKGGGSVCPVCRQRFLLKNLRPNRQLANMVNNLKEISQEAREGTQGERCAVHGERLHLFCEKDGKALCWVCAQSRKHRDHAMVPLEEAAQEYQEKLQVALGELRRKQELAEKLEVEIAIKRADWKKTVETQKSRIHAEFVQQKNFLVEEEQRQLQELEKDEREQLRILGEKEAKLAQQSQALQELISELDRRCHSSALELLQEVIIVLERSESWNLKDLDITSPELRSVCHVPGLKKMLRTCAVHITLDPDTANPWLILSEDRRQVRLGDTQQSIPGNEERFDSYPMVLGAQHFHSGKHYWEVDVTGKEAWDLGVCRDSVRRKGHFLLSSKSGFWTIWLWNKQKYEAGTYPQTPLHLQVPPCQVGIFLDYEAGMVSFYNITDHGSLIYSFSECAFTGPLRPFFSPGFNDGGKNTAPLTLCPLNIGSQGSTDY

Experiments:
[1] = target: T1, SNAI2 (human (endogenous in RD and A204)) (UniProt O43623); test: co-IP; non-denaturing lysis buffer with protease inhibitors; lysate on protein A/G agarose beads pre-coupled with antibody, 4 °C for 4 h; western blot; RD and A204 cells (Fig. 4A), RD cells (Fig. 6C, D, reciprocal)
T1 sequence: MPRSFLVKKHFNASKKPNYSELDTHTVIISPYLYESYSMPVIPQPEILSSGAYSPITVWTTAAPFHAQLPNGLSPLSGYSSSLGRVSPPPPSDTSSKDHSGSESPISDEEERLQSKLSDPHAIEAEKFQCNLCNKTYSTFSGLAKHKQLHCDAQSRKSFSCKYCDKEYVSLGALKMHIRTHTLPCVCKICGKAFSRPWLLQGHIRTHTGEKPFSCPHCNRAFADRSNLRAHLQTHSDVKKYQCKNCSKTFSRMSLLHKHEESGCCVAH

[2] = target: Ubiquitin-specific protease 7 (human (endogenous in RD and A204)) (UniProt Q93009); test: as above

| binding [1] | binding [2] | Substance |
| --- | --- | --- |
| binds | binds | E3 ubiquitin ligase TRIM21 (from UniProt P19474 1-475) (enzyme) |
| binds |  | Ubiquitin-specific protease 7 (from UniProt Q93009 1-1102) (enzyme) |
